According to paper PMC5053694:
No constants are given. Whether binding was seen depends on the method and setting. Binding seen in cells or lysates may run through a third protein. A yes stands for co-enrichment or nearness to the bait. Other partners may have been found.

Sequences of proteins named here, by UniProt entry; tags and fusion partners are left off. Residues count along the entry.
UniProt Q9BYZ8, residues 23-158: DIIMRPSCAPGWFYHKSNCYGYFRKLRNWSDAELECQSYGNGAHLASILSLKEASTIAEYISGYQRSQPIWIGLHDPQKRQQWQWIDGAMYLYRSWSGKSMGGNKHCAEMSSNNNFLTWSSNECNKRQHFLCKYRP

Molecular target: REG4-Flag (regenerating islet-derived family, member 4, Flag-tagged) (human) (UniProt Q9BYZ8)
Experiment: affinity purification with mass spectrometry; whole cell extracts of SGC-7901/REG4-Flag and SGC-7901/vector-Flag immunoprecipitated with anti-Flag M2 affinity gel; SDS-PAGE, Coomassie blue; differential band analysed by LC-MS

- binding: binds
B1: prosaposin (protein, UniProt P07602 17-524)
chain: GPVLGLKECTRGSAVWCQNVKTASDCGAVKHCLQTVWNKPTVKSLPCDICKDVVTAAGDMLKDNATEEEILVYLEKTCDWLPKPNMSASCKEIVDSYLPVILDIIKGEMSRPGEVCSALNLCESLQKHLAELNHQKQLESNKIPELDMTEVVAPFMANIPLLLYPQDGPRSKPQPKDNGDVCQDCIQMVTDIQTAVRTNSTFVQALVEHVKEECDRLGPGMADICKNYISQYSEIAIQMMMHMQPKEICALVGFCDEVKEMPMQTLVPAKVASKNVIPALELVEPIKKHEVPAKSDVYCEVCEFLVKEVTKLIDNNKTEKEILDAFDKMCSKLPKSLSEECQEVVDTYGSSILSILLEEVSPELVCSMLHLCSGTRLPALTVHVTQPKDGGFCEVCKKLVGYLDRNLEKNSTKQEILAALEKGCSFLPDPYQKQCDQFVAEYEPVLIEILVEVMDPSFVCLKIGACPSAHKPLLGTEKCIWGPSYWCQNTETAAQCNAVEHCKRHVWN
